16 targets from the supplement of paper PMC11732987, “Enantioselective OTUD7B fragment discovery through chemoproteomics screening and high-throughput optimisation” (Communications Chemistry, 2025) can be followed below.

The chains behind the UniProt entries cited, without tags or fusion partners. Where a name states a change or a piece, a line headed by the entry shows the natural chain unless it says otherwise. Residues count along the entry.
UniProt Q7Z2T5, 303-324: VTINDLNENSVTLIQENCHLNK
UniProt Q9Y4A5, whole entry, looked up: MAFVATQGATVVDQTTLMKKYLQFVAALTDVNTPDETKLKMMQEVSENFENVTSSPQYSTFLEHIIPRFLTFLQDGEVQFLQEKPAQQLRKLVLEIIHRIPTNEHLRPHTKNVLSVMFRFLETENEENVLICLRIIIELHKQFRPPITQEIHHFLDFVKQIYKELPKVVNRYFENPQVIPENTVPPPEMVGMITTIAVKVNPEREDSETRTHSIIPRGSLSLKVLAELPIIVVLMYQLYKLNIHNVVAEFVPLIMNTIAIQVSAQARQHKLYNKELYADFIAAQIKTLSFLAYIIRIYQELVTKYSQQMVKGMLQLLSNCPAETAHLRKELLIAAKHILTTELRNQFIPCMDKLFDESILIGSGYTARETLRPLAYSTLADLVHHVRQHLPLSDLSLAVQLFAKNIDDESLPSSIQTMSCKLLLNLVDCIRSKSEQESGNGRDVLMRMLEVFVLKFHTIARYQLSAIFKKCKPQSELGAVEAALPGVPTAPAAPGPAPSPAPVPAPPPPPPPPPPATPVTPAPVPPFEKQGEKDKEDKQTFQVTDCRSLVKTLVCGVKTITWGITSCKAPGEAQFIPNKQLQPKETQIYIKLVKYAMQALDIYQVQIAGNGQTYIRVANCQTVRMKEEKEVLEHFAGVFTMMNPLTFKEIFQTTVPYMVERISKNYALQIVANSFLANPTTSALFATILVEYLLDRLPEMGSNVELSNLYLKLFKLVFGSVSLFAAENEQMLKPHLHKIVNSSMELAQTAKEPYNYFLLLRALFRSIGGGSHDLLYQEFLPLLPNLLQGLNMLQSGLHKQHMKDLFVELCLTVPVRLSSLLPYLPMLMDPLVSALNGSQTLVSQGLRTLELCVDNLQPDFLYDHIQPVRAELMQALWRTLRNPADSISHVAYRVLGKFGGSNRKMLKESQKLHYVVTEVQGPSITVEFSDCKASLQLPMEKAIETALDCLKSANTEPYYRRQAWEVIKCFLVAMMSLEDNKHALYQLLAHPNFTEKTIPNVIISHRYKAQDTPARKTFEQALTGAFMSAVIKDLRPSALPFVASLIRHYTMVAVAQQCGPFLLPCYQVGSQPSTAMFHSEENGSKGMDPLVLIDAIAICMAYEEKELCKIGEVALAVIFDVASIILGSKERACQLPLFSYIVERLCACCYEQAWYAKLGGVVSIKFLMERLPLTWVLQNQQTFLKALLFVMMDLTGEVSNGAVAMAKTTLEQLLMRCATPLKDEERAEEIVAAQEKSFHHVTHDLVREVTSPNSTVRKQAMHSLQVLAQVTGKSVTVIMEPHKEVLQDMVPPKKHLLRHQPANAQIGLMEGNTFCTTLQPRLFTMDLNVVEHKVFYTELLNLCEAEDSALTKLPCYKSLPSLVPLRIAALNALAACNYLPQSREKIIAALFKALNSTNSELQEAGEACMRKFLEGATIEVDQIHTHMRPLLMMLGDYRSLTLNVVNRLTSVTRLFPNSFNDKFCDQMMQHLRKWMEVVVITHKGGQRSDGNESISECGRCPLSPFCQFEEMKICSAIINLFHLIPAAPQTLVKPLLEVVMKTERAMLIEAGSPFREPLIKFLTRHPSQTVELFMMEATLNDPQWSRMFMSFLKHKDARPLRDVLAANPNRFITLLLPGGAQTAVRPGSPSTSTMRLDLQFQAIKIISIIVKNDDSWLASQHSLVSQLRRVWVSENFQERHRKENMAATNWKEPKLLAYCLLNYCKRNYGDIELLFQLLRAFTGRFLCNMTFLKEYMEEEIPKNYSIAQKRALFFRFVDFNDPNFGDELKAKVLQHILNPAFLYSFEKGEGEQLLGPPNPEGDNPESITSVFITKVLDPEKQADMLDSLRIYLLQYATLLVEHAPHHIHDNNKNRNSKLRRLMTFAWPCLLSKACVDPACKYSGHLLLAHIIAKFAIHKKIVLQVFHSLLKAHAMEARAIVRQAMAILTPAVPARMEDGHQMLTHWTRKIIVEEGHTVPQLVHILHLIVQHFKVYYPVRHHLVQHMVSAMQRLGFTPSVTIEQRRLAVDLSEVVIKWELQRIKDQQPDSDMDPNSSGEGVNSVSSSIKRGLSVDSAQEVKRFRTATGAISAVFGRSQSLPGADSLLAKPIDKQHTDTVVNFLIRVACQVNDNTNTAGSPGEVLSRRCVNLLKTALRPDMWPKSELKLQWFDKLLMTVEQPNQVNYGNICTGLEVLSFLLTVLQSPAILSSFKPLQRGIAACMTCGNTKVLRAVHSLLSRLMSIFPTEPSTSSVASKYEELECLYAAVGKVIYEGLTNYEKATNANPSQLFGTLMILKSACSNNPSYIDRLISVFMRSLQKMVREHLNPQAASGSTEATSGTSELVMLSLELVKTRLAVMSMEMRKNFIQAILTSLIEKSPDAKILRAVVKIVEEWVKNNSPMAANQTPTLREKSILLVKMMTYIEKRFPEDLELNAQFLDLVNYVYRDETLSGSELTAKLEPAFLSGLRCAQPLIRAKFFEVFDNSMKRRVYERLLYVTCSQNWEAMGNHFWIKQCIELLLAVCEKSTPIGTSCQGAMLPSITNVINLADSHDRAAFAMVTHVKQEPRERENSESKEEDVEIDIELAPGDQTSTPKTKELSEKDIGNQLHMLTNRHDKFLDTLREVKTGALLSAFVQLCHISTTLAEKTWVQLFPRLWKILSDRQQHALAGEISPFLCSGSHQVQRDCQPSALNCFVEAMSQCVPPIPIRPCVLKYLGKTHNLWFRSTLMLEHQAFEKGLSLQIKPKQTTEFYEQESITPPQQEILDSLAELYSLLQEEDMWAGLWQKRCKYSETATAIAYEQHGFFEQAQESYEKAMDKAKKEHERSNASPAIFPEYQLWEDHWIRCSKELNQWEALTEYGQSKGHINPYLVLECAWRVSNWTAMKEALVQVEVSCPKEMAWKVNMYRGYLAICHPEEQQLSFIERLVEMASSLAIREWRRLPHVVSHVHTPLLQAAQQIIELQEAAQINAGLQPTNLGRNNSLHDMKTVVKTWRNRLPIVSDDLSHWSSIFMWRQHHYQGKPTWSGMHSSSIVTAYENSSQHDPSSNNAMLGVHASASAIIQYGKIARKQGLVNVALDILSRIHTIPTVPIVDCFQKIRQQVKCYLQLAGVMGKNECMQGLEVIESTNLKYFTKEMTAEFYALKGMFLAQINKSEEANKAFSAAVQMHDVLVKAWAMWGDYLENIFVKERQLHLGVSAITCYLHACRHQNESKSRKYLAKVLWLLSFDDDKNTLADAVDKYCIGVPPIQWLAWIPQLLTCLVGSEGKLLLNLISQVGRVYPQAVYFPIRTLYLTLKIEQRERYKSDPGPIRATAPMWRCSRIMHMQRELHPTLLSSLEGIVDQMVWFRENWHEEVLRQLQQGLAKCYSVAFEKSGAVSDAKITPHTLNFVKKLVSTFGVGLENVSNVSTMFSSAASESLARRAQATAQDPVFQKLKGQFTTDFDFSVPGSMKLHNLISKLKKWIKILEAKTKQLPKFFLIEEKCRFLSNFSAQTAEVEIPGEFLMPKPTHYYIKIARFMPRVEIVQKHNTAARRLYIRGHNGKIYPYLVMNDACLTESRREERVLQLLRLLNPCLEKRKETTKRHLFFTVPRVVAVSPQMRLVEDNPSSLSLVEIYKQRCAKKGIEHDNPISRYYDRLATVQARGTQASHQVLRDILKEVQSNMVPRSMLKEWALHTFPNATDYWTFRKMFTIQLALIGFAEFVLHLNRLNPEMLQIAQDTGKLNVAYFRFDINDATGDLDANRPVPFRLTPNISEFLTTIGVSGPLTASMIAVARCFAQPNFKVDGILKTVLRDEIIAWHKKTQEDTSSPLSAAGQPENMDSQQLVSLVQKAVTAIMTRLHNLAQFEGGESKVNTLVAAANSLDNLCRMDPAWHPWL
UniProt P11441: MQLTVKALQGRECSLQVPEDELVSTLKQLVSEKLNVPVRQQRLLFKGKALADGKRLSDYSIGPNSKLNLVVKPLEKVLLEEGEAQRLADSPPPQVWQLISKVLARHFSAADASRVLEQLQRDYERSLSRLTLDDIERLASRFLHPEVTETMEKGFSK
UniProt Q9NPG3, 26-46: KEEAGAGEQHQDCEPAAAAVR
UniProt P68371: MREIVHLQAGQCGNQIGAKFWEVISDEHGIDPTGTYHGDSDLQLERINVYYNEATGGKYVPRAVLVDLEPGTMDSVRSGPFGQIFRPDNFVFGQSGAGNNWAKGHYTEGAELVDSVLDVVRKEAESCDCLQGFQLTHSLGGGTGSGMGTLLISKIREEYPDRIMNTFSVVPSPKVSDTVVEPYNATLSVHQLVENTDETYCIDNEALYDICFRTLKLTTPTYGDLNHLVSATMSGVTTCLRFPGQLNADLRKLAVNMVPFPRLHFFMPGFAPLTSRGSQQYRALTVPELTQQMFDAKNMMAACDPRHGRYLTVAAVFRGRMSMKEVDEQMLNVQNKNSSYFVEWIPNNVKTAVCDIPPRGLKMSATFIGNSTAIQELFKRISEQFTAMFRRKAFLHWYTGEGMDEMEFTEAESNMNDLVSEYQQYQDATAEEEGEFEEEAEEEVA
UniProt P53804: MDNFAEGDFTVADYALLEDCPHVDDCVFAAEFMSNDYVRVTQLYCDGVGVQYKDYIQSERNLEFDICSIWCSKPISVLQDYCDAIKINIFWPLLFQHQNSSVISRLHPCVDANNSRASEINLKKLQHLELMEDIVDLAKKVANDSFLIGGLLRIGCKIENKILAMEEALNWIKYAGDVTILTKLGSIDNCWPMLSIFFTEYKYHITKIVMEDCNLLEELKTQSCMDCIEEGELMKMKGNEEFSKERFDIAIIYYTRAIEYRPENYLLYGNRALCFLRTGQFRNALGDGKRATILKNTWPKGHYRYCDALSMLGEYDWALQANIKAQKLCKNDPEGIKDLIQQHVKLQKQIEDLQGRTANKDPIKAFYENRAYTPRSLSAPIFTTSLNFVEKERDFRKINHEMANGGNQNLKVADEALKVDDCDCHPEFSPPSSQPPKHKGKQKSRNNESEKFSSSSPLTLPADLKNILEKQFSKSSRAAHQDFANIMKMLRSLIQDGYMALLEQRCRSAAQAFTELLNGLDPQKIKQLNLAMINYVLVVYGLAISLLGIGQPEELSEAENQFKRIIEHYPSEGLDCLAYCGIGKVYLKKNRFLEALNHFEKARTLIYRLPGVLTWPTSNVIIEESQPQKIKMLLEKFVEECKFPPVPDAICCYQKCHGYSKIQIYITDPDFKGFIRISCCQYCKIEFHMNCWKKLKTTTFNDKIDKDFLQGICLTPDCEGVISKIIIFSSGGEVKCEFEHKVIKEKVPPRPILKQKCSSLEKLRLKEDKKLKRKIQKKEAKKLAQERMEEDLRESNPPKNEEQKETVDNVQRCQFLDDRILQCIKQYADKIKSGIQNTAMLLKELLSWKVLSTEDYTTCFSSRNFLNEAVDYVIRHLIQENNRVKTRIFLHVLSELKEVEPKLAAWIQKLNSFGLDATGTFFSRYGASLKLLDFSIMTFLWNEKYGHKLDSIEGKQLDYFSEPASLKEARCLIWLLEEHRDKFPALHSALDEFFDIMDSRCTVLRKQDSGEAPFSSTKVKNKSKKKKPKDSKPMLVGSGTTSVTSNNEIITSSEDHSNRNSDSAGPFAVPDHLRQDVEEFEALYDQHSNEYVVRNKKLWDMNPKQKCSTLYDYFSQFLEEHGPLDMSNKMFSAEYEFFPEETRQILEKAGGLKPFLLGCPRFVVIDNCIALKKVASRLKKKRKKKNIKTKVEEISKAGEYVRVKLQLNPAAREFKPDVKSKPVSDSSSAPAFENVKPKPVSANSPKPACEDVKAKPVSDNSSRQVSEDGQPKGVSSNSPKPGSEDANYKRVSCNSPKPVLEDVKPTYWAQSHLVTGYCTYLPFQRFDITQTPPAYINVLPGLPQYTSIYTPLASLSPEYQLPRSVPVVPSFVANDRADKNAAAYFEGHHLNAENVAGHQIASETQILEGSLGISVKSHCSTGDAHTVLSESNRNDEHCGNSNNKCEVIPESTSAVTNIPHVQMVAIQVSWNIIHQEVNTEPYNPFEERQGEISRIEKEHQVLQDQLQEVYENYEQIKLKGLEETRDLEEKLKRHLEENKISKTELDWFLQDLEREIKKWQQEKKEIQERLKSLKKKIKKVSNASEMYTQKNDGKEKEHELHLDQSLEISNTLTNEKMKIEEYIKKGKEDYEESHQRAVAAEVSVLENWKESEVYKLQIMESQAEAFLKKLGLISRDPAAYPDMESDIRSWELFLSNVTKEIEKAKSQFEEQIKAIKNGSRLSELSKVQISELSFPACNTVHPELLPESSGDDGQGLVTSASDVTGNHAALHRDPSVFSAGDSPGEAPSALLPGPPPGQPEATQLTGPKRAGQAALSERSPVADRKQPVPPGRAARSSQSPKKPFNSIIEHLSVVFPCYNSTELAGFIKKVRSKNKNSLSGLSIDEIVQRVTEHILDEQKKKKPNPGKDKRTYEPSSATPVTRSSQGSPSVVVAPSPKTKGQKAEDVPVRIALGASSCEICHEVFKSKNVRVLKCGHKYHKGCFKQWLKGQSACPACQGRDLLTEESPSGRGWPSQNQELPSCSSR

The other results are listed elsewhere or left out. The data scatter; read single values as rough.

Compound in test [1]: ClCC(=O)N[C@@H]1CCCc2ccccc12
In words: log2 mean competition ratio of IA-DTB cysteine labelling (DMSO/compound) (log2 ratio); higher = stronger cysteine engagement by compound. The conditions noted are these: treatment time: 4 h, cell line lysate: HEK293T. The method, then: (§1)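 IA-DTB competitive cysteine chemoproteomics in HEK293T RIPA lysate. Lysates were treated with compound 29 or 30 at 50 or 200 µM for 4 h, then IA-DTB (500 µM, 1 h), trypsin-digested, NeutrAvidin-enriched and analysed by diaPASEF. Competition ratio = intensity DMSO / intensity compound (n=4 treated, n=64 DMSO); binding: mean log2 CR ≥ 1 and p ≤ 0.05 plus QC filters. Target is the cysteine site.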

Compound in test [2]: ClCC(=O)N[C@H]1CCCc2ccccc12
The description is as above. The conditions noted are these: treatment time: 4 h, cell line lysate: HEK293T. As to the method: as §1

As to TUBA3C;TUBA3D C347;(C347), the “log2 mean competition ratio” value is 0.424 in test [1] (50 µM), -0.101 in test [1] (200 µM), 0.626 in test [2] (50 µM) and 0.186 in test [2] (200 µM).

Turning to TRMT1L C239 (UniProt Q7Z2T5), the “log2 mean competition ratio” value in test [1] (50 µM) was -0.249; in test [1] (200 µM) it was -0.157; in test [2] (50 µM) it was 0.214; in test [2] (200 µM) it was -0.0244.

With TRRAP C3555 (UniProt Q9Y4A5), the “log2 mean competition ratio” value is -0.0366 in test [1] (50 µM), 0.136 in test [1] (200 µM), 0.286 in test [2] (50 µM) and 0.148 in test [2] (200 µM).

With TYK2 C402 (UniProt P29597), the “log2 mean competition ratio” value is -0.164 in test [1] (50 µM), 0.0066 in test [1] (200 µM), -0.295 in test [2] (50 µM) and -0.0665 in test [2] (200 µM).

For the target UBL4A C13 (UniProt P11441), the “log2 mean competition ratio” value was -0.126 in test [1] (50 µM), -0.0353 in test [1] (200 µM), -0.263 in test [2] (50 µM) and -0.114 in test [2] (200 µM).

Consider TTK C229 (UniProt P33981), for which the “log2 mean competition ratio” value in test [1] (50 µM) is -0.0814; in test [1] (200 µM), 0.283; in test [2] (50 µM), -0.0524; in test [2] (200 µM) it was 0.259.

Regarding TRMT1L C320 (UniProt Q7Z2T5), the “log2 mean competition ratio” value in test [1] (50 µM) is -0.0966; in test [1] (200 µM) it was -0.0676; in test [2] (50 µM), 0.329; in test [2] (200 µM), -0.252.

For TTC21B C914 (UniProt Q7Z4L5), the “log2 mean competition ratio” value in test [1] (50 µM) was 0.019; in test [1] (200 µM), 0.0141; in test [2] (50 µM), -0.231; in test [2] (200 µM) it was -0.261.

On to TRMT2A C486 (UniProt Q8IZ69), for which the “log2 mean competition ratio” value in test [1] (50 µM) was 0.254; in test [1] (200 µM) it was 0.169; in test [2] (50 µM), -0.0102; in test [2] (200 µM), 0.143.

Take UBN1 C38 (UniProt Q9NPG3): the “log2 mean competition ratio” value in test [1] (50 µM) was 0.172; in test [1] (200 µM), -0.312; in test [2] (50 µM) it was -0.182; in test [2] (200 µM), -0.359.

Regarding TTK C322 (UniProt P33981), the “log2 mean competition ratio” value in test [1] (50 µM) is -0.161; in test [1] (200 µM) it was 0.296; in test [2] (50 µM), -0.095; in test [2] (200 µM), 0.166.

Regarding TRMT2A C463 (UniProt Q8IZ69), the “log2 mean competition ratio” value is 0.241 in test [1] (50 µM), 0.027 in test [1] (200 µM), 0.186 in test [2] (50 µM) and -0.0736 in test [2] (200 µM).

On to TTC13 C110 (UniProt Q8NBP0), for which the “log2 mean competition ratio” value in test [1] (50 µM) is -0.06; in test [1] (200 µM), -0.0346; in test [2] (50 µM), -0.00289; in test [2] (200 µM) it was 0.188.

TTF2 C754 (UniProt Q9UNY4): the “log2 mean competition ratio” value in test [1] (50 µM) is -0.2; in test [1] (200 µM) it was -0.199; in test [2] (50 µM) it was 0.0925; in test [2] (200 µM) it was 0.0909.

TUBB4B C12 (UniProt P68371): the “log2 mean competition ratio” value in test [1] (50 µM) is 0.175; in test [1] (200 µM), -0.314; in test [2] (50 µM), -0.0954; in test [2] (200 µM) it was -0.099.

For TTC3 C109 (UniProt P53804), the “log2 mean competition ratio” value is 0.128 in test [1] (50 µM), 0.515 in test [1] (200 µM), 0.0683 in test [2] (50 µM) and -0.000992 in test [2] (200 µM).
